This test has as its target T1, Ran GTPase activating protein 1 (human (endogenous in DLD1)) (UniProt P46060).
T1 sequence: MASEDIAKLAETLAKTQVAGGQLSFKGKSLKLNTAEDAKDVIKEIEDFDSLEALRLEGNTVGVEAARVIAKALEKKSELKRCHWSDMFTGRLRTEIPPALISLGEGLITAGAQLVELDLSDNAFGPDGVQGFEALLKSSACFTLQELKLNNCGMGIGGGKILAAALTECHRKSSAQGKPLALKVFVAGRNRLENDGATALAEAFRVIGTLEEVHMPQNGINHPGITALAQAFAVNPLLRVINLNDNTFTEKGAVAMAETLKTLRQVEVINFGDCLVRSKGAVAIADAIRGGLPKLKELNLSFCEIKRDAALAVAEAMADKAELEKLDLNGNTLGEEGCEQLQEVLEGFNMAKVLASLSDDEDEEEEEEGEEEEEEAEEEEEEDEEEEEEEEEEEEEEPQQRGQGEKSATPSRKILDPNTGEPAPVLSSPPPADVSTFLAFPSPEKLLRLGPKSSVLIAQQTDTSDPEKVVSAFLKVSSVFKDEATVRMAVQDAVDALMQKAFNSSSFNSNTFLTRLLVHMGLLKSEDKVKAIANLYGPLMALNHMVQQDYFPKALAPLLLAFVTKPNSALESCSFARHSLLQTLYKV
Put plainly: affinity purification with mass spectrometry; co-immunoprecipitation of RanGAP1 from CRC cells followed by protein mass spectrometry; candidates combined with label-free LC/MS proteomics; protocol by ref. 10.

These are yes or no findings as the source states them, for the method shown. Binding seen in cells or lysates may run through a third protein. Here binding means that the protein was enriched with, or labelled near, the bait; the list need not be complete. No binding means not detected with the bait.

B1: cellular retinoic acid-binding protein 2 (protein, UniProt P29373 1-138)
chain: MPNFSGNWKIIRSENFEELLKVLGVNVMLRKIAVAAASKPAVEIKQEGDTFYIKTSTTVRTTEINFKVGEEFEEQTVDGRPCKSLVKWESENKMVCEQKLLKGEGPKTSWTRELTNDGELILTMTADDVVCTRVYVRE
Regarding B1, the binding result is “no binding”.

Values taken from publication PMC11016466.
